This is an account of results in article PMC6461442.

Results are given in words; binding and its absence hold for the method and conditions named. Binding seen in cells or lysates may run through a third protein. These calls come from enrichment with a bait or labelling near it, and not all partners need be listed. No binding means not detected with the bait.

For experiment [1], the target named is Chm7-GFP (S. cerevisiae). As to the kind of experiment: affinity purification with mass spectrometry; Chm7-GFP captured from extracts of vps4Δpom152Δ cells on GFP-nanobody magnetic beads, 1 hr 4°C, 400 mM trisodium citrate pH 8, 0.5% n-dodecyl β-D-maltoside; LC-MS/MS against no-GFP control, one replicate.
In experiment [2] the target is Chm7-GFP (S. cerevisiae). As to the kind of experiment: affinity purification with mass spectrometry; GFP fusion captured from extracts of otherwise wildtype cells on GFP-nanobody magnetic beads, 1 hr 4°C, 400 mM trisodium citrate pH 8, 0.5% n-dodecyl β-D-maltoside; LC-MS/MS against no-GFP control.

B1: Nur1 (protein, UniProt Q12066 1-484)
chain: MGSNDLINEAYDDSEVVGEERESKSAWMKRWYQLLTSPLDLQLVINEKLEMINWDAYAKSLAKPLGNFLTILFFIIRLLQDNLIKPNYYKLNVKSGAFDLSKSNKLKEFDYLWEISSSFQNNNQFYAFQSWYFVTLRFLNNLFRFTIFILLSLNLYVSCKFMFGYFKTYNLFHLKKEFNSPNLTKHNLKDLSKEYYEDIYKQSLWSMLKHFFRGSRDDGPHVNQNEDEIFFQLRKWIPTNFMINLFVSFSPTAIVFLSFSDVSFTSAIAIVFHQYILDYIITKRFQRSVDDDLILSSAALQEYEDKHIMARINQCSNIDTLSSAMGTRSKTPRIFTTHSLCGEEIREVYNYEKREFEALPKMTESVPGSRETRIKDYGGISQVSDHQSHPIGFHYSPRMSPYYRDKVLDNNLAQSSSNENLEKGGAYLPNQDQNRPSKSLSPLRKTPLSARQKRFEGSEFNVLNKNDINSILRSPKKKKNYHKR
Turning to B1, the binding entry in the experiment with Chm7-GFP (S. cerevisiae) [1] is reported as “binds”.

B2: Heh2 (protein, UniProt Q03281 1-663)
chain: MDHRNLDPKTLKVSQLRRVLVENDVAFPANARKPVLVKLFEEKVRQRLQSSPEASKVRTSIQKVVKSGAKNADRKKTLKSKKLESSSSESKTVKDENVETNKRKREQISTDNEAKMQIQEEKSPKKKRKKRSSKANKPPESPPQSKSDGKATSADLTSELETVEELHKKDSSDDKPRVKELPKPELPNLKVSNEFLAQLNKELASAATENYDHSIKSTDLSSIRIETEEPVGPSTGAETRNESEVMENINLEVQPEVKEAKEELTKISETFDNQDEEDTSRLSSKKNIRSPKGRTRHFIANKTKRGIDIMKPFIAHLFIWLWNGAIFLSIICPILFGLWYREQRIQVGYCGHEKPLKSLAISAFPQTERVDSVLQAYRPNCLECPEHGICSSFMNVECEPGYEPKSSILETYGIIPFPKYCAKDESKEKEVDELVWKVNEYLKKKNAQHECGEGENLFESGETETKLYDIFSHSRPSWESQREFNDHWKNVLEILKKKDDIIWLPLDFETNGKREKSKSNNTNYIYRSTSKKWVTLQCHLEGDIQEYITKYGGSLFITLGVLFLIKKIQSTLDNYVQGEQIIEKLVKEAIDKLKDVKKNKGEEPFLTTVQLRATLLSDIPNIKEQNNLWAQTKEKIMKEQSENIELYLLEENGEIMTCWEWKE
As to B2, the binding result in the experiment with Chm7-GFP (S. cerevisiae) [2] and in the experiment with Chm7-GFP (S. cerevisiae) [1] was “no binding” each time.

B3: Snf7 (protein, UniProt P39929 1-240)
chain: MWSSLFGWTSSNAKNKESPTKAIVRLREHINLLSKKQSHLRTQITNQENEARIFLTKGNKVMAKNALKKKKTIEQLLSKVEGTMESMEQQLFSIESANLNLETMRAMQEGAKAMKTIHSGLDIDKVDETMDEIREQVELGDEISDAISRPLITGANEVDEDELDEELDMLAQENANQETSKIVNNNVNAAPISENKVSLPSVPSNKIKQSENSVKDGEEEEDEEDEDEKALRELQAEMGL
As for B3, the binding entry with Chm7-GFP (S. cerevisiae) [1] was “binds”.

B4: Heh1 (protein, UniProt Q03707 1-834)
chain: MNSDLEYLEDGFDPNSMKVATLRRILVENNVDFPSNARKNALVGLFDEKVKPQIPQLRKMYLNVRPSDEGIVKMDRPSSSPSIASPRRSRRARREKSASPMAKQFKKNRILDDVSNDDDDDDDDDDDNDKKDDPLIVPSGTDTDEVDDEEDDVITSSSNKSDTNDFQQNSDTRKKRKDPDSDDWSESNSKENKIDNKHLNLLSSDSEIEQDYQKAKKRKTSDLNQEHGNGSAILGKLSVKTPIKNTNRKPVSMDNFNDSLTSSGTENDPFVPNIRHNPKELGTANGTGHSTPLSKLKVSASFADKLPQKEVPSTILVPEVEQQEPSQSERTPSLFSSEGSGSESEAPLLPEITTPGPHQPMGNTSNNVVEMIDTDSSNLVSDEDEVLVPTRIETPQLPTEKDVEKCEARVQELQEEVNEQLEHENGSEFDVKQGSGKVGNRHKFKRALKFLSKSLLALFLFCIFIVIPLLFGLWYREQRLLIGYCGHEVPSHRVSGNSFEFIQKLDNLLQDYRPKCIPCPPNGICYPYLKLKCKPDYKLAPSRLDFLEIIPAQGKCVKDDKKQQLVSEVVEKSLEFLRAKNAQISCGDGKDDIESGMTEDALYQIFNEARAPWIRDDEFEDLWIQVIKDLTEEPEILWRQLSPTDNNIGGNSNNIIKTNDVPRQKRHLPEKFISKTRNFRSTSKKYIGMKCRFEREIYQTYKKFQRPIWLMFLLIVISKVIEIKLKNYYRKKARIEELVTQTMEKLKFQKIKSMSDPKENAYLSIVQLRDIFLSDIVDLKYKNQLWSEVVKYLEHNNSNIKSNLTEIRGEIMKCWEWIGPMELNEPKDSAENKI
Consider B4, for which the binding result with Chm7-GFP (S. cerevisiae) [1] is on record as “binds”.
